These results are taken from PubChem BioAssay AID2685 (National Center for Advancing Translational Sciences (NCATS), 2010).

A short description of this assay: qHTS Assay for Lipid Storage Modulators in Drosophila S3 Cells.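 On cell number change: cells counted by Cell Tracker Red CMTPX staining in the red channel.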 Particulars: BODIPY lipid droplet fluorescence, 18-24 h; for cell number change: measured here: cell count max response, cells fed with added oleic acid. Put shortly:
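Drosophila S3 cells loaded with oleic acid (400 uM, as added) and compounds at several concentrations; lipid droplets imaged by 488-nm laser-scanning cytometry, 500–530 nm intensity and object ratio to cell channel. Percent activity normalized to 20 uM Triacsin C.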

[1] abbreviates: measured here: lipid fluorescence (Fed channel) AC50, cells fed with added oleic acid.
The mark [2] stands for this setting: measured here: cell number channel AC50, cells fed with added oleic acid.

The other results are listed elsewhere or left out. Shown are side measurements of this screen, not its main read-out; they come without a call. Most of these compounds were active or inconclusive in the main read-out, so they are no random draw. The note in brackets gives the kind of curve behind each potency; many fits are weak.

By AC50 is commonly meant the concentration at which the activity in the assay is half-maximal. Low values mean greater potency, high ones weaker potency. For the compound `CCCCCCCC(=O)NC(Nc1ccc(S(N)(=O)=O)cc1)C(Cl)(Cl)Cl` (configuration not stated), the cell number change is -8.32%. Moreover, the AC50 under setting [1] was 0.184 µM [falling, full curve, poor fit]. As for `C=CCSc1nnc(C)n1-c1ccc(Cl)cc1`, the cell number change was 4.3%. Turning to `CSc1ccccc1OCc1cc(C(=O)NCC(C)(C)N2CCOCC2)no1`, the cell number change is -5.17%. Turning to `O=C1NC(c2cccs2)Nc2sc3c(c21)CCCC3` (configuration not stated), the cell number change is 55.6%. The AC50 under setting [2] was 13 µM [rising, single point]. In addition, the AC50 under setting [1] was 0.366 µM [falling, single point]. Take `Cc1ccc(N2Cc3ccccc3OC(C)C2=O)cc1` (configuration not stated): the cell number change was determined as 2.7%. In the case of `CC(C)c1ccc(N(C(=O)c2snc(C(N)=O)c2N)C(C(=O)NCC2CCCO2)c2ccc(N(C)C)cc2)cc1` (configuration not stated), the cell number change was -2.02%. In addition, under setting [1], the half-maximal activity concentration (AC50) was 0.58 µM [rising, single point]. As to `Cc1nn(Cc2c(F)c(F)c(F)c(F)c2F)c(C)c1NC(=O)c1ccc(COc2ccc(F)cc2)o1`, the AC50 under setting [1] was 1.84 µM [rising, partial curve].

For the compound `O=[N+]([O-])c1cc(F)c2cccnc2c1O`, the cell number change was determined as 5.08%. Also, under setting [1], the half-maximal activity concentration (AC50) was 29.1 µM [rising, single point]. Consider `CCN(CC)CCN(C(=O)c1ccc2c(c1)OCCO2)c1nc2c(Cl)cccc2s1`, for which the cell number change was 37.8%. Also, the AC50 under setting [2] is 25.1 µM [rising, single point]. Further, the AC50 under setting [1] was 20 µM [rising, partial curve]. Turning to `COc1cc(NC2c3ccccc3C(=O)N2Cc2ccc3c(c2)OCO3)cc(OC)c1` (configuration not stated), the cell number change stood at 32.1%. Besides, the AC50 under setting [2] is 20.6 µM [rising, single point]. Further, the AC50 under setting [1] was 16.4 µM [rising, partial curve].

Regarding `Cc1cc(=O)oc2cc(OC(C)C(=O)Nc3ccc(C(N)=O)cc3)ccc12` (configuration not stated), the cell number change amounted to 1.13%. In addition, the AC50 under setting [1] was 20.6 µM [rising, single point]. Turning to `Cn1c(-n2c(CCCN3C(=O)c4ccccc4C3=O)nc3ccccc3c2=O)nc2ccccc21`, the cell number change turned out to be 0.136%. Further, the AC50 under setting [1] was 0.00517 µM [falling, full curve, poor fit].

`O=C(CN1CCN(c2ccccc2O)CC1)Nc1ccnn1C1CCCC1`: the cell number change is -9.23%. In addition, the AC50 under setting [1] was 3.26 µM [falling, single point]. As to `COCC(C)n1c(C)cc(C(=O)CSc2cc(C)c3ccccc3n2)c1C` (configuration not stated), the cell number change was found to be 43.8%. Moreover, under setting [2], the AC50 was 8.2 µM [rising, partial curve]. For the same compound, under setting [1], the AC50 is 11.6 µM [rising, partial curve]. In the case of `COc1ccc(NC(=O)CN(C)C(=O)CCCc2nc3ccccc3s2)cc1`, under setting [1], the AC50 is 29.1 µM [rising, single point]. `COc1ccc(N2CCN(C(c3cccs3)C(C)NC(=O)c3ccc4c(c3)OCO4)CC2)cc1` (configuration not stated): the cell number change turned out to be 37.9%. Moreover, under setting [2], the concentration at half-maximal activity (AC50) is 4.11 µM [rising, partial curve]. Turning to `Cc1ccc(NCC(=O)N/N=C/c2cccc(Br)c2)cc1`, under setting [2], the AC50 is 6.51 µM [falling, single point]. `Cc1nn(C)cc1CNCc1ccc(OCC(O)CN(C)Cc2ccccc2)cc1` (configuration not stated): the cell number change was -13.7%. Moreover, under setting [1], the AC50 is 14.6 µM [falling, single point].

`COc1ccnc(Oc2ccc(F)cc2)c1C(=O)N/C=N/OCc1c(Cl)cccc1Cl`: the cell number change is 128%. Under setting [2], the AC50 was 0.651 µM [rising, single point]. Besides, the AC50 under setting [1] was 4.61 µM [rising, partial curve].

`C/C(=N\N=c1/sc2ccccc2n1C)c1ccccn1`: the cell number change was -3.75%.

Consider `COc1cc(CNc2ccccc2SC)ccc1O`, for which the cell number change was determined as 8.77%. For the same compound, the AC50 under setting [1] is 0.116 µM [falling, full curve, poor fit]. Turning to `O=C(c1ccccc1F)N1CCc2ccccc21`, the cell number change was -0.558%.

Turning to `CC#CC[N+](C)(C)CCCCCCCC`, the cell number change worked out at 32.3%. For the same compound, the AC50 under setting [2] is 0.82 µM [rising, full curve, poor fit]. The concentration at half-maximal activity (AC50) under setting [1] was 0.731 µM [rising, full curve, poor fit]. In the case of `CCOc1ccc(NC(=O)CSc2nc3ccccc3nc2N2CCCC2)cc1`, the cell number change is -17%.

In the case of `Cc1nnc(SCCn2c(Br)nc3c2c(=O)[nH]c(=O)n3C)s1`, the cell number change was 18.5%. Also, the AC50 under setting [1] was 0.82 µM [falling, full curve, poor fit]. `CCOC(=O)C1(CC2CCCCO2)CCN(C(=O)Nc2cccc(SC)c2)CC1` (configuration not stated): the cell number change is -18.9%. For the same compound, under setting [1], the AC50 is 18.4 µM [falling, partial curve, poor fit]. With `CC(C)NC(=O)COC(=O)c1cc(=O)[nH]c2ccccc12`, the cell number change amounted to 18.6%. The AC50 under setting [1] was 29.1 µM [rising, single point]. For `COc1ccc(C(=O)Nc2ccccc2C(=O)NC(Cc2ccc(O)cc2)C(=O)NNC(=O)c2ccncc2)cc1` (configuration not stated), the cell number change was 33.1%. In addition, the AC50 under setting [2] was 2.59 µM [rising, partial curve]. Besides, the AC50 under setting [1] is 0.651 µM [rising, full curve].

In the case of `CC(C)(C)NC(=O)/C=C/c1cccs1`, the cell number change worked out at 16.6%. In the case of `COc1ccc(C(=O)NC(=S)Nc2nc(-c3ccc(OC)c(Br)c3)cs2)cc1Br`, the cell number change worked out at 0.885%. Besides, the AC50 under setting [1] was 6.51 µM [rising, partial curve]. `COC(=O)c1cccc(C23CC4(C2)[C@H](CN(Cc2ccc(-c5ccccc5)cc2)[C@@H]4c2ccccc2)C3c2ccccc2)c1` (some centres not stated): the cell number change was -63.8%. Besides, under setting [2], the AC50 is 1.03 µM [falling, full curve]. For the same compound, the concentration at half-maximal activity (AC50) under setting [1] is 1.3 µM [falling, full curve].

In the case of `CCCCN(CC)c1nc(-c2ccncc2)nc2ccccc12`, the cell number change is -58.9%. The concentration at half-maximal activity (AC50) under setting [2] was 29.1 µM [falling, single point]. Moreover, the AC50 under setting [1] is 0.231 µM [rising, full curve].

For `COc1ccc(C(=O)NC(=S)NNC(=O)c2cnccn2)cc1`, the AC50 under setting [1] is 0.291 µM [falling, full curve]. Take `O=C1OC(c2ccccc2)/C(=C(/O)c2ccc(Cl)cc2)C1=O` (configuration not stated): the cell number change was -43.7%. In addition, the AC50 under setting [2] is 16.4 µM [falling, single point]. Take `O=C(/C=C/c1ccc(Br)o1)Nc1nccs1`: the cell number change was -22%.

Regarding `CC(C)(C)NC(=O)CSc1ccc(C(C)(C)C)cc1`, the cell number change is -36.1%. In addition, the AC50 under setting [2] is 20.6 µM [falling, single point]. Also, the AC50 under setting [1] was 20.6 µM [falling, partial curve]. Take `Cc1ccc(/C([O-])=C(/C(=S)NCc2ccccc2)[n+]2ccccc2)cc1[N+](=O)[O-]`: the cell number change came to 1.78%. In the case of `NC(=O)c1ccc(N2CCN(c3ccccc3O)CC2)c([N+](=O)[O-])c1`, the AC50 is 0.103 µM [rising, single point] under setting [2] and 0.116 µM [rising, full curve] under setting [1]. Turning to `O=C(COc1ccc(Br)cc1Br)NC(=S)N1CCCc2ccccc21`, the cell number change was 40%. Under setting [2], the AC50 was 8.2 µM [rising, partial curve]. The AC50 under setting [1] is 6.51 µM [rising, single point].

Consider `OC(CN1CCOCC1)CN(c1ccccc1)c1ccccc1` (configuration not stated), for which the cell number change was 1.11%. With `O=C(CC12CC3CC(CC(C3)C1)C2)Nc1cccc2ncccc12`, the cell number change stood at 74.5%. Besides, the AC50 under setting [2] was 13 µM [rising, partial curve]. Regarding `O=[N+]([O-])c1cc(Cl)c(O)c2ncccc12`, the cell number change was 31.1%.

For `Cc1cc(-c2nnc(SCC(=O)NC3CC3)n2C(C)C)cs1`, the cell number change came out at 20.8%. The AC50 under setting [2] was 0.158 µM [rising, full curve, poor fit]. Consider `Cc1cc(C)n2nc(SCc3nnc(SCc4ccccc4)s3)nc2n1`, for which the cell number change is -32.1%. Under setting [2], the AC50 is 18.4 µM [falling, single point]. Regarding `Cc1ccc(S(=O)(=O)NCC(=O)OCC(=O)N2CCc3ccccc32)cc1`, the cell number change stood at 12.5%. The AC50 under setting [2] is 0.00411 µM [rising, full curve, poor fit]. For the same compound, the AC50 under setting [1] was 0.291 µM [falling, full curve].

In the case of `O=C(N[C@@H](Cc1c[nH]c2ccccc12)C(=O)O)c1ccccc1Cl`, the cell number change was -64.6%. For the same compound, under setting [2], the AC50 was 29.1 µM [falling, partial curve, poor fit]. As for `CCN(CC)C(=O)c1ccccc1NS(=O)(=O)c1ccc(OC)c(C(=O)N2CCOCC2)c1`, the cell number change was -14.5%. `CC1(C)CC2CC(C)(CN2S(=O)(=O)c2ccc(F)cc2F)C1` (configuration not stated): the cell number change is -6.27%. Moreover, the AC50 under setting [1] was 29.1 µM [falling, single point].

For the compound `N#CC(NC(=O)OCc1ccccc1)c1ccccc1` (configuration not stated), the cell number change amounted to 13.1%. Under setting [1], the AC50 was 0.326 µM [rising, partial curve, poor fit]. On to `CCOc1cc(C(=S)N2CCOCC2)ccc1OC(=O)c1cccc(C)c1`, for which the cell number change is -1.14%. Also, the AC50 under setting [1] was 16.4 µM [falling, single point]. As for `COc1ccc(NC(=O)CSc2nnc(Cc3ccccc3)c(=O)n2N)cc1`, the cell number change was -75%. Besides, under setting [2], the AC50 is 9.2 µM [falling, partial curve]. The AC50 under setting [1] was 0.651 µM [rising, single point]. Consider `O=C1CC(NS(=O)(=O)c2cccnc2)CN1c1ccccc1` (configuration not stated), for which the cell number change was 8.84%. Consider `COC/C=C/C1=CC2=CC(=O)C(C)(OC(=O)c3cnc4ccccc4n3)C(=O)C2=CN1C1CCCCC1` (configuration not stated), for which the cell number change was 15%. Moreover, the AC50 under setting [2] was 2.31 µM [rising, partial curve]. `CN(C)/C=N/c1c(C#N)cnn1-c1ccccc1`: the cell number change came to 7.35%. In addition, the AC50 under setting [1] was 0.82 µM [rising, single point]. `COCCCNC(=O)CC(NS(=O)(=O)c1ccc(OC)cc1)c1ccc(OC)cc1` (configuration not stated): the cell number change is -1.5%. Also, under setting [1], the AC50 was 0.116 µM [falling, full curve, poor fit]. As for `O=C1CC(c2ccccc2)CC(O)=C1C=NCCCO` (configuration not stated), the cell number change worked out at 4.54%. Besides, under setting [1], the half-maximal activity concentration (AC50) was 0.116 µM [falling, full curve, poor fit]. Take `S=C(Nc1ccc2c(c1)OCO2)NC1CCN(Cc2ccccc2)CC1`: the AC50 under setting [2] is 0.58 µM [rising, single point].

Regarding `Cc1ccc(C)c(NC(=O)CN2C(=O)CNC2=O)c1`, the half-maximal activity concentration (AC50) under setting [2] is 0.00461 µM [rising, full curve, poor fit].

In the case of `CC(=O)N1CCN(c2ccc(S(C)(=O)=O)cc2[N+](=O)[O-])CC1`, the cell number change was -53.8%. Moreover, the AC50 under setting [2] is 6.51 µM [falling, full curve]. As to `Cc1nc(N2CCCCC2)c2ccsc2n1`, the cell number change worked out at 59.7%. For the same compound, under setting [2], the half-maximal activity concentration (AC50) was 29.1 µM [rising, single point]. Under setting [1], the AC50 was 20.6 µM [rising, partial curve].

As to `COc1ccccc1-c1cc(C(=O)NC(C)C)no1`, the cell number change is -2.3%. Besides, under setting [2], the AC50 is 7.31 µM [rising, partial curve].
